{
  "source": "PubChem BioAssay AID445",
  "about": "(National Center for Advancing Translational Sciences (NCATS), 2006)",
  "note": "The other results are listed elsewhere or left out. The main result of the screen is listed elsewhere. These columns were measured beside it and carry no call. Compounds called inactive in the main read-out are mostly missing here. Words in brackets tell the shape of the fitted curve; partial curves, single points and poor fits give uncertain potencies.",
  "data": [
    {"experiment": "IkB Signaling", "details": "ABC-DLBCL IkBa-CBG/CBR dual luciferase ratio (green luciferase fused to IkBa over red control in OCI-Ly3 lymphoma cells), 4 h; measured here: control luc red channel unless noted", "in_short": "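Curves were fitted separately to fusion (green), unfused (red) and ratio luminescence, then classed by r2, magnitude and activity. Cells: OCI-Ly3, 4 h compound plus doxycycline at 37C; 10 uM MG-132 defined full response.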", "values": [
      {"smiles": "O=C(CSc1ncnc2c1cnn2-c1ccccc1Cl)N1CCN(C(=O)c2ccco2)CC1", "AC50": "31.6 µM [falling, partial curve]"},
      {"smiles": "Cc1c(CC(=O)N2CCCCC2)c(=O)oc2c(C)c3occ(C(C)(C)C)c3cc12", "AC50": "39.8 µM [falling, single point]"},
      {"smiles": "COc1ccc(Cl)cc1NC(=O)C1CCN(c2nnc(C)c3c(C)n(-c4ccccc4)nc23)CC1", "AC50": "25.1 µM [falling, partial curve]"},
      {"smiles": "Cc1ccc(CN2CCSc3ccc(C(=O)NCCc4ccccc4)cc32)cc1", "AC50": "10 µM [falling, partial curve]"},
      {"smiles": "O=CN1Cc2[nH]c3ccccc3c2N(c2ccc(Cl)cc2)C1=O", "AC50": "1 µM [falling, partial curve]"},
      {"smiles": "CN(C)c1cc2c(cc1NS(=O)(=O)c1ccccc1)n(C)c(=O)n2C", "AC50": "0.00794 µM [rising, full curve, poor fit]"},
      {"smiles": "Cc1cccc(N2CCN(C(=O)c3ccc(CS(=O)c4cccc(Cl)c4)o3)CC2)c1C", "note": "(stereo not drawn)", "AC50": "31.6 µM [falling, single point]"},
      {"smiles": "COCCn1c(C)cc(C(=O)CSc2nc(C)cc(C)c2C#N)c1C", "AC50": "31.6 µM [falling, partial curve]"},
      {"smiles": "COc1ccc(CN(C(=O)Nc2cccc(Cl)c2)c2ccccn2)cc1OC", "AC50": "0.0158 µM [rising, full curve]"},
      {"smiles": "O=C(C1CC1)N1CCc2cc(Br)cc(S(=O)(=O)NC3CCCCC3)c21", "AC50": "39.8 µM [falling, single point]"},
      {"smiles": "Cc1ccc(O)c(NC(=O)c2cc(-c3ccc4c(c3)OCO4)on2)c1", "AC50": "10 µM [falling, partial curve]"},
      {"smiles": "COc1ccc(NC(=O)CCCSc2nc(-c3ccco3)cc(C(F)(F)F)n2)c(OC)c1", "AC50": "10 µM [falling, partial curve]"},
      {"smiles": "COc1cccc(OCc2nc3ccccc3n2Cc2ccccc2C)c1", "AC50": "20 µM [falling, single point]"},
      {"smiles": "CCOc1ccc(N(CC)C(=O)C2CCN(S(=O)(=O)c3cccc4nonc34)CC2)cc1", "AC50": "12.6 µM [falling, partial curve]"},
      {"smiles": "COc1ccc(-c2noc(N3CCC(C(=O)N4CCN(c5ccccn5)CC4)CC3)n2)cc1", "AC50": "10 µM [falling, partial curve]"},
      {"smiles": "COc1ccc(CCC(=O)NC2CC(=O)N(c3cccc(F)c3)C2)cc1", "note": "(stereo not drawn)", "AC50": "1 µM [rising, full curve, poor fit]"},
      {"smiles": "Cc1ccc(-n2nc(C)c3c(C)cc(=O)n(CC(=O)N4CCCc5ccccc54)c32)cc1", "AC50": "25.1 µM [falling, single point]"},
      {"smiles": "Cc1ccc(NC(=O)c2c(C)oc3ncnc(N4CCCCC4)c23)cc1Cl", "AC50": "25.1 µM [rising, partial curve, poor fit]"}
    ]}
  ]
}
